{"sequences": {"note": "By UniProt entry, the sequences of proteins in these tests, tags left out. Where a name states a change or a piece, a line headed by the entry shows the natural chain unless it says otherwise.", "UniProt Q9UNA4": "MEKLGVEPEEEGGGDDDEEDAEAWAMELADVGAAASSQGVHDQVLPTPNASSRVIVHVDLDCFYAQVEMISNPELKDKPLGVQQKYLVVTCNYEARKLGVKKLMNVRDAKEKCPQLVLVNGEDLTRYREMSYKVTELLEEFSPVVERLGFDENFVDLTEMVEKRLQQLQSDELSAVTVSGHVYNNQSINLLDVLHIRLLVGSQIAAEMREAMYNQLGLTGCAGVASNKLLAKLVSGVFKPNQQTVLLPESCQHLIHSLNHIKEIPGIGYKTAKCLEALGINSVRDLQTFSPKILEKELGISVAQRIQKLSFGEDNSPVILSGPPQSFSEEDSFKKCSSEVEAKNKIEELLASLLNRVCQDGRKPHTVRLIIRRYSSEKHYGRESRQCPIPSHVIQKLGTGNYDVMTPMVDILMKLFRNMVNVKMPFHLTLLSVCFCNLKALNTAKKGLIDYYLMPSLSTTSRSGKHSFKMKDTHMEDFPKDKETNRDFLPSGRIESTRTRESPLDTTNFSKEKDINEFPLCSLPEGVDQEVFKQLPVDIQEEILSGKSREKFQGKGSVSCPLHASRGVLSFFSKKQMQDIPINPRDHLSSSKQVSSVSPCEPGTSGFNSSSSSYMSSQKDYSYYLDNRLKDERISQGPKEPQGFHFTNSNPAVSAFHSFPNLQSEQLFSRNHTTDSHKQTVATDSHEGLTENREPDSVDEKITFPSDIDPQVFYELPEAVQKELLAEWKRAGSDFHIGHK"}, "source": "PubChem BioAssay AID588590", "about": "(National Center for Advancing Translational Sciences (NCATS), 2011)", "note": "In all, about 390,000 compounds went through this assay and about 4,000 (1%) were called active. The inconclusive results got no clear call from the source; some entries with a clear call stand among them for comparison. Calls come from the whole dose curve; as a rule, active = well fitted inhibition curve with a large enough effect; inconclusive = small, poorly fitted or top-dose-only effect, or another doubt; inactive = no such curve, though single readings can be large or run the other way. A potency beside an inconclusive call is a rough fit, not a confirmed value. Residues, ends and D or L forms follow the SMILES beside them. Potency is the fitted concentration of half-maximal effect."}
{"biological_target": "DNA polymerase iota (Homo sapiens) (UniProt Q9UNA4)", "experiment": "qHTS for Inhibitors of Polymerase Iota", "details": "Pol iota fluorescent replication assay, 10 min; series mostly up to 115 µM", "method_in_brief": "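Pol iota at 10 nM preincubated 15 min with compounds at room temperature; reaction started with fluorescent substrate, 50 nM final. Fluorescence read kinetically at 0 and 10 min; buffer-only wells as negative control.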"}
{"smiles": "CCN1CCN(c2nc(-c3cccnc3)nc3ccccc23)CC1", "Potency": "inconclusive: 25.1 µM [inhibitor, full curve]"}
{"smiles": "O=C(NCc1ccccc1)c1cc2ccc(O)cc2oc1=O", "Potency": "inactive"}
{"smiles": "COc1cc(/C=C2/C(=O)NN(c3ccc(Cl)cc3)C2=O)cc(OC)c1O", "Potency": "inconclusive: 7.94 µM [inhibitor, partial curve, poor fit]"}
{"smiles": "COc1cc(COCC(O)CN2CCN(CCN3C(=O)c4cccc5cccc(c45)C3=O)CC2)cc(OC)c1OC", "note": "(configuration not stated)", "Potency": "inactive"}
{"smiles": "CCc1cc[n+](-c2nc([O-])sc2C=O)cc1", "Potency": "inconclusive: 17.8 µM [inhibitor, full curve, poor fit]"}
{"smiles": "CO/C=C\\C=C/c1nnn(-c2ccc(Cl)cc2)n1", "Potency": "inconclusive: 39.8 µM [inhibitor, single point]"}
{"smiles": "CC(=O)Nc1ccc(S(=O)(=O)NC2(C(F)(F)F)C(=O)Nc3c2c(=O)[nH]c(=O)n3C)cc1", "note": "(configuration not stated)", "Potency": "inconclusive: 50.1 µM [inhibitor, partial curve, poor fit]"}
{"smiles": "O=C(O)c1cccc(NC(=S)N/N=C/c2ccccc2OCc2ccc(Br)cc2)c1", "Potency": "inconclusive: 50.1 µM [inhibitor, partial curve, poor fit]"}
{"smiles": "COc1ccc(-c2csc(NC(=S)NC(=O)/C=C/c3ccco3)n2)cc1Br", "Potency": "inconclusive: 35.5 µM [inhibitor, single point]"}
{"smiles": "Cc1c(C(=O)O)oc2c1-c1nn(Cc3ccccc3Cl)cc1CC2", "Potency": "inconclusive: 50.1 µM [inhibitor, partial curve]"}
{"smiles": "CS(=O)(=O)Nc1cccc(C2=NN(S(C)(=O)=O)C(c3ccc4c(c3)OCO4)C2)c1", "note": "(configuration not stated)", "Potency": "inactive"}
{"smiles": "COc1ccc(NC(=O)c2ccc3c(c2)C(=O)N(Cc2ccncc2)C3=O)cc1S(N)(=O)=O", "Potency": "active: 31.6 µM"}
{"smiles": "COC(=O)c1ccc(OC(=O)c2cccnc2SC)cc1", "Potency": "inactive"}
{"smiles": "COC(=O)c1c(NC(=O)c2ccccc2)sc(C(N)=O)c1C", "Potency": "active: 89.1 µM"}
{"smiles": "CCC(Cn1nnc2ccccc2c1=O)NC(=O)Nc1ccccc1Cl", "note": "(configuration not stated)", "Potency": "inactive"}
{"smiles": "Nc1c(C(=O)NCC2CCCO2)sc2nc3c(c(-c4ccco4)c12)CC/C3=C\\c1ccco1", "note": "(configuration not stated)", "Potency": "active: 0.794 µM"}
{"smiles": "Cc1ccc(S(=O)(=O)N(CC(O)Cn2c3ccccc3c3ccccc32)c2cccc(C(=O)NCCO)c2)cc1", "note": "(configuration not stated)", "Potency": "inconclusive: 89.1 µM [inhibitor, single point]"}
{"smiles": "O=C(CSc1nc2c([nH]c3ccccc32)c(=O)n1-c1ccc(F)cc1)Nc1ccc2c(c1)OCCO2", "Potency": "inactive"}
{"smiles": "CCN1CCN(CCCNC(=O)C(=O)c2c(C)[nH]c3ccccc23)CC1", "Potency": "inconclusive: 100 µM [inhibitor, single point]"}
{"smiles": "COc1cc(NCCCCCCN)c2ncccc2c1OC", "Potency": "active: 11.2 µM"}
{"smiles": "CC(=O)NC(CC(C)C)C(=O)NC(CO)C(=O)NC(CCC(=O)O)C(=O)NC(C)C(=O)NC(CC(C)C)C(N)=O", "note": "(configuration not stated) (Ac-LSEAL-NH2; configuration not given here)", "Potency": "inconclusive: 15.8 µM [inhibitor, full curve, poor fit]"}
{"smiles": "COc1ccccc1NC(=O)N1CCCC1", "Potency": "inconclusive: 89.1 µM [inhibitor, single point]"}
{"smiles": "CCC(Sc1nc2ncccc2[nH]1)C(=O)Nc1ccccc1F", "note": "(configuration not stated)", "Potency": "inactive"}
{"smiles": "O=[N+]([O-])c1ccc2c(c1)/C(=C/c1ccc(C=S)cc1)C=C2", "Potency": "inactive"}
{"smiles": "CC(=O)C1=C(C)NC(SCC(=O)c2ccc(F)cc2)=C(C#N)C1c1ccco1", "note": "(configuration not stated)", "Potency": "inconclusive: 20 µM [inhibitor, single point]"}
{"smiles": "Cc1c(C(=O)OCC(=O)N(C)Cc2ccc(Cl)cc2)oc2ccccc12", "Potency": "inconclusive: 12.6 µM [inhibitor, partial curve, poor fit]"}
{"smiles": "O=C(/C=C/c1ccco1)N(Cc1ccccc1)C1CCS(=O)(=O)C1", "note": "(configuration not stated)", "Potency": "inconclusive: 15.8 µM [inhibitor, partial curve, poor fit]"}
{"smiles": "CC1(C)C(=O)Nc2ccccc2N1C(=O)COc1ccc(S(=O)(=O)N2CCOCC2)cc1Cl", "Potency": "inconclusive: 22.4 µM [inhibitor, full curve, poor fit]"}
{"smiles": "Cc1ccc(COC(=O)Cc2coc3cc(O)ccc23)cc1", "Potency": "inconclusive: 89.1 µM [inhibitor, single point]"}
{"smiles": "CC1CC(C)CN(C(=O)CSc2nc(N)cc(=O)[nH]2)C1", "note": "(configuration not stated)", "Potency": "inconclusive: 63.1 µM [inhibitor, single point]"}
{"smiles": "Cc1cccc(NC(=O)C2CCN(S(=O)(=O)c3c(C)noc3/C=C/c3ccco3)CC2)c1", "Potency": "inconclusive: 89.1 µM [inhibitor, single point]"}
{"smiles": "CC(Oc1ccccc1)C(=O)N=C1SC2CS(=O)(=O)CC2N1CCc1ccccc1", "note": "(configuration not stated)", "Potency": "inconclusive: 89.1 µM [inhibitor, single point]"}
{"smiles": "CCN(Cc1ccccc1)S(=O)(=O)c1ccc(F)c(C(=O)Nc2cc(C)ccc2OC)c1", "Potency": "inconclusive: 100 µM [inhibitor, partial curve, poor fit]"}
{"smiles": "CCCc1nc2ccccc2c(=O)n1/N=C/c1ccc(O)c(O)c1", "Potency": "inconclusive: 14.1 µM [inhibitor, full curve, poor fit]"}
{"smiles": "COc1c(C)cc(NS(=O)(=O)c2ccc3c(c2)OCCO3)cc1C", "Potency": "inactive"}
{"smiles": "Cc1ccc2[nH]c(=O)c(CN(CCc3ccccc3)C(c3nnnn3Cc3ccco3)C(C)C)cc2c1", "note": "(configuration not stated)", "Potency": "inconclusive: 25.1 µM [inhibitor, single point]"}
{"smiles": "COC(=O)c1ccc(-c2ccc(C(c3c(C)[nH][nH]c3=O)c3c(C)[nH][nH]c3=O)o2)cc1", "Potency": "active: 3.55 µM"}
{"smiles": "COc1ccc(NC(=O)CCCN2C(=O)CCn3nc(-c4cn(C)c5ccccc45)cc32)cc1", "Potency": "inconclusive: 89.1 µM [inhibitor, single point]"}
{"smiles": "CC(O)CNc1ccc(-c2nn(C)c(=O)c3ccccc23)cc1[N+](=O)[O-]", "note": "(configuration not stated)", "Potency": "inconclusive: 17.8 µM [inhibitor, full curve, poor fit]"}
{"smiles": "O=C(Cn1c(COc2ccccc2)nc2ccccc21)Nc1cc(Cl)cc(Cl)c1", "Potency": "inconclusive: 100 µM [inhibitor, partial curve, poor fit]"}
{"smiles": "CN(CC(=O)NCc1ccccc1F)S(=O)(=O)c1ccc(Cl)cc1", "Potency": "inconclusive: 25.1 µM [inhibitor, partial curve, poor fit]"}
{"smiles": "CC(=O)N(C1=C(N)C(=O)c2ccccc2C1=O)c1ccccc1", "Potency": "inconclusive: 28.2 µM [inhibitor, single point]"}
{"smiles": "Cc1nn(-c2ccccn2)c2nc(-c3cccs3)cc(C(=O)NCc3ccco3)c12", "Potency": "inconclusive: 28.2 µM [inhibitor, single point]"}
{"smiles": "Cc1cnc(C(=O)Oc2c(C)ccc(C)c2C)cn1", "Potency": "inconclusive: 35.5 µM [inhibitor, single point]"}
{"smiles": "Nc1ccc(-c2cnc(N)c(C(=O)c3cccnc3)n2)cn1", "Potency": "inconclusive: 25.1 µM [inhibitor, partial curve]"}
{"smiles": "COc1ccccc1Nc1ccc(NC(=O)c2cccc([N+](=O)[O-])c2C)cc1", "Potency": "inconclusive: 0.794 µM [inhibitor, full curve, poor fit]"}
{"smiles": "O=C(NCCN1C(=O)S/C(=C\\c2cccnc2)C1=O)c1ccc(S(=O)(=O)N2CCCC2)cc1", "Potency": "inconclusive: 79.4 µM [inhibitor, partial curve]"}
{"smiles": "NS(=O)(=O)c1ccc(CCNC(=O)c2cc(-c3ccco3)nc3ccccc23)cc1", "Potency": "inactive"}
{"smiles": "COc1cccc(OCc2nnc(SCC(=O)NCc3ccco3)n2CCc2ccccc2)c1", "Potency": "inconclusive: 44.7 µM [inhibitor, partial curve, poor fit]"}
{"smiles": "COc1cccc(NC(=O)Nc2cccn(Cc3ccccc3)c2=O)c1", "Potency": "inconclusive: 158 µM [inhibitor, partial curve, poor fit]"}
{"smiles": "Cc1ccc2c(=O)c(C(=O)c3ccc(Cl)cc3)cn(CC(=O)Nc3ccc4c(c3)OCCO4)c2n1", "Potency": "inactive"}
{"smiles": "CCOC(=O)C1=C(C)N=c2s/c(=C/c3ccc(OCC(=O)O)cc3)c(=O)n2C1c1ccc(OC)cc1OC", "note": "(configuration not stated)", "Potency": "inconclusive: 44.7 µM [inhibitor, single point]"}
{"smiles": "CNc1nc(Oc2ccc(C(=O)OC)cc2)nc(SC)n1", "Potency": "inconclusive: 100 µM [inhibitor, partial curve, poor fit]"}
{"smiles": "COc1ccc2c(c1)c(=O)oc1cc(OCC(=O)N3CCc4ccccc4C3)ccc12", "Potency": "inconclusive: 20 µM [inhibitor, full curve, poor fit]"}
{"smiles": "CCCCNC(=O)C1CCC(Cn2c(=O)c3sccc3n(CC(=O)Nc3ccccc3)c2=O)CC1", "note": "(configuration not stated)", "Potency": "inactive"}
{"smiles": "C/C=C\\C=C\\C(=O)N1CC2(CC(c3cccc(NC(=O)COc4ccc(Cl)cc4)c3)=NO2)C[C@H]1C(N)=O", "note": "(some centres not stated)", "Potency": "inconclusive: 17.8 µM [inhibitor, full curve]"}
{"smiles": "CC(C)C[C@@H](CN)NC(=O)c1nc[nH]c1C(=O)N[C@@H](C)C(=O)CNC[C@H](C)NC(=O)c1nc[nH]c1C(=O)N[C@@H](C)C(=O)O", "Potency": "inconclusive: 17.8 µM [inhibitor, partial curve, poor fit]"}
{"smiles": "Cc1ccc(S(=O)(=O)N2CCc3ccccc3C2CN2C(=O)c3ccccc3C2=O)cc1", "note": "(configuration not stated)", "Potency": "inconclusive: 70.8 µM [inhibitor, single point]"}
{"smiles": "CC1=C(C(=O)OC(C)C)C(c2cccc([N+](=O)[O-])c2)n2c(cc(=O)[nH]c2=S)N1", "note": "(configuration not stated)", "Potency": "inactive"}
{"smiles": "CN(CCCCCCCCCCN(C)C(=O)Oc1cccc([N+](C)(C)C)c1)C(=O)Oc1cccc([N+](C)(C)C)c1", "Potency": "inactive"}
{"smiles": "O=C(Nc1nccs1)c1ccc(S(=O)(=O)N2CCOCC2)cc1", "Potency": "inactive"}
{"smiles": "CNc1ccccc(C(=O)/C=C/c2ccccc2OC)c1=O", "Potency": "inconclusive: 14.1 µM [inhibitor, full curve]"}
